{"source": "PubChem BioAssay AID1224827 (NIAID, 2016)", "aim": "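Retest primary hits on a TNF reporter with six siRNAs per gene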 (follow-up of hits)", "cell system": "RAW264.7 G9 mouse macrophage reporter clone", "knock-down reagent": "single siRNA against mouse genes, 100 nM siRNA", "time to read-out": "siRNA for 2 days, then LPS about 16 h", "conditions": "bacterial lipopolysaccharide (LPS), 10 ng/ml, cells fixed after overnight (about 16 h) stimulation", "detection": "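Imaged nuclear TNF reporter intensity, background removed, scaled per plate and to non-targeting control wells, as z-scores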", "reading the numbers": "TNF reporter z-score, mean: higher = stronger Tnf promoter reporter signal; gene median z, three same-vendor siRNAs: higher = stronger Tnf reporter signal for the gene", "active means": "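Active siRNA: replicate-mean z-score of 2 or more, or -2 or less; no calls for control wells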", "note": "In all, the deposit lists about 3,800 reagents; below is an unselected part. About 2,200 of all reagents (57%) count as active. 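Active means a strong reporter change in either direction; calls are per siRNA, not per gene; qiagen siRNAs gave weaker effects.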 Reagents against one gene are numbered here. Further read-outs or replicates are left out here."}
{"gene": "1700010I14Rik", "siRNA no.": 1, "TNF reporter z-score, mean": 1.66, "gene median z, three same-vendor siRNAs": -3.48, "Call": "inactive"}
{"gene": "1700010I14Rik", "siRNA no.": 2, "TNF reporter z-score, mean": -3.48, "gene median z, three same-vendor siRNAs": -3.48, "Call": "active"}
{"gene": "1700010I14Rik", "siRNA no.": 3, "TNF reporter z-score, mean": -4.26, "gene median z, three same-vendor siRNAs": -3.48, "Call": "active"}
{"gene": "1700010I14Rik", "siRNA no.": 4, "TNF reporter z-score, mean": 2.27, "gene median z, three same-vendor siRNAs": 1.67, "Call": "active"}
{"gene": "1700010I14Rik", "siRNA no.": 5, "TNF reporter z-score, mean": 2.35, "gene median z, three same-vendor siRNAs": 1.67, "Call": "active"}
{"gene": "1700010I14Rik", "siRNA no.": 6, "TNF reporter z-score, mean": 1.38, "gene median z, three same-vendor siRNAs": 1.67, "Call": "inactive"}
{"gene": "Clta", "siRNA no.": 1, "TNF reporter z-score, mean": -0.493, "gene median z, three same-vendor siRNAs": -2.36, "Call": "inactive"}
{"gene": "Clta", "siRNA no.": 2, "TNF reporter z-score, mean": -1.82, "gene median z, three same-vendor siRNAs": -2.36, "Call": "inactive"}
{"gene": "Clta", "siRNA no.": 3, "TNF reporter z-score, mean": -2.9, "gene median z, three same-vendor siRNAs": -2.36, "Call": "active"}
{"gene": "Clta", "siRNA no.": 4, "TNF reporter z-score, mean": 4.55, "gene median z, three same-vendor siRNAs": 0.722, "Call": "active"}
{"gene": "Clta", "siRNA no.": 5, "TNF reporter z-score, mean": 2.53, "gene median z, three same-vendor siRNAs": 0.722, "Call": "active"}
{"gene": "Clta", "siRNA no.": 6, "TNF reporter z-score, mean": -1.34, "gene median z, three same-vendor siRNAs": 0.722, "Call": "inactive"}
{"gene": "Rpl37a", "siRNA no.": 1, "TNF reporter z-score, mean": -1.37, "gene median z, three same-vendor siRNAs": -5.08, "Call": "inactive"}
{"gene": "Rpl37a", "siRNA no.": 2, "TNF reporter z-score, mean": -5.15, "gene median z, three same-vendor siRNAs": -5.08, "Call": "active"}
{"gene": "Rpl37a", "siRNA no.": 3, "TNF reporter z-score, mean": -5.66, "gene median z, three same-vendor siRNAs": -5.08, "Call": "active"}
{"gene": "Rpl37a", "siRNA no.": 4, "TNF reporter z-score, mean": -1.41, "gene median z, three same-vendor siRNAs": -2.68, "Call": "inactive"}
{"gene": "Rpl37a", "siRNA no.": 5, "TNF reporter z-score, mean": -2.04, "gene median z, three same-vendor siRNAs": -2.68, "Call": "active"}
{"gene": "Rpl37a", "siRNA no.": 6, "TNF reporter z-score, mean": -3.14, "gene median z, three same-vendor siRNAs": -2.68, "Call": "active"}
{"gene": "Ier5", "siRNA no.": 1, "TNF reporter z-score, mean": 0.969, "gene median z, three same-vendor siRNAs": -1.95, "Call": "inactive"}
{"gene": "Ier5", "siRNA no.": 2, "TNF reporter z-score, mean": -1.99, "gene median z, three same-vendor siRNAs": -1.95, "Call": "inactive"}
{"gene": "Ier5", "siRNA no.": 3, "TNF reporter z-score, mean": -2.73, "gene median z, three same-vendor siRNAs": -1.95, "Call": "active"}
{"gene": "Sftpd", "siRNA no.": 1, "TNF reporter z-score, mean": 0.731, "gene median z, three same-vendor siRNAs": -2.18, "Call": "inactive"}
{"gene": "Sftpd", "siRNA no.": 2, "TNF reporter z-score, mean": -2.18, "gene median z, three same-vendor siRNAs": -2.18, "Call": "active"}
{"gene": "Sftpd", "siRNA no.": 3, "TNF reporter z-score, mean": -4.95, "gene median z, three same-vendor siRNAs": -2.18, "Call": "active"}
{"gene": "Sftpd", "siRNA no.": 4, "TNF reporter z-score, mean": 0.311, "gene median z, three same-vendor siRNAs": -1.38, "Call": "inactive"}
{"gene": "Sftpd", "siRNA no.": 5, "TNF reporter z-score, mean": -1.7, "gene median z, three same-vendor siRNAs": -1.38, "Call": "inactive"}
{"gene": "Sftpd", "siRNA no.": 6, "TNF reporter z-score, mean": -2.01, "gene median z, three same-vendor siRNAs": -1.38, "Call": "active"}
{"gene": "Supt6", "siRNA no.": 1, "TNF reporter z-score, mean": -1.95, "gene median z, three same-vendor siRNAs": -2.36, "Call": "inactive"}
{"gene": "Supt6", "siRNA no.": 2, "TNF reporter z-score, mean": -2.36, "gene median z, three same-vendor siRNAs": -2.36, "Call": "active"}
{"gene": "Supt6", "siRNA no.": 3, "TNF reporter z-score, mean": -2.47, "gene median z, three same-vendor siRNAs": -2.36, "Call": "active"}
{"gene": "Supt6", "siRNA no.": 4, "TNF reporter z-score, mean": -3.09, "gene median z, three same-vendor siRNAs": -3.73, "Call": "active"}
{"gene": "Supt6", "siRNA no.": 5, "TNF reporter z-score, mean": -3.46, "gene median z, three same-vendor siRNAs": -3.73, "Call": "active"}
{"gene": "Supt6", "siRNA no.": 6, "TNF reporter z-score, mean": -3.93, "gene median z, three same-vendor siRNAs": -3.73, "Call": "active"}
{"gene": "Akt1s1", "siRNA no.": 1, "TNF reporter z-score, mean": -1.12, "gene median z, three same-vendor siRNAs": -2.51, "Call": "inactive"}
{"gene": "Akt1s1", "siRNA no.": 2, "TNF reporter z-score, mean": -3.07, "gene median z, three same-vendor siRNAs": -2.51, "Call": "active"}
{"gene": "Akt1s1", "siRNA no.": 3, "TNF reporter z-score, mean": -4.11, "gene median z, three same-vendor siRNAs": -2.51, "Call": "active"}
{"gene": "Akt1s1", "siRNA no.": 4, "TNF reporter z-score, mean": 3.13, "gene median z, three same-vendor siRNAs": 0.229, "Call": "active"}
{"gene": "Akt1s1", "siRNA no.": 5, "TNF reporter z-score, mean": 3.46, "gene median z, three same-vendor siRNAs": 0.229, "Call": "active"}
{"gene": "Akt1s1", "siRNA no.": 6, "TNF reporter z-score, mean": -1.28, "gene median z, three same-vendor siRNAs": 0.229, "Call": "inactive"}
{"gene": "Ssh3", "siRNA no.": 1, "TNF reporter z-score, mean": 1.14, "gene median z, three same-vendor siRNAs": -2.86, "Call": "inactive"}
{"gene": "Ssh3", "siRNA no.": 2, "TNF reporter z-score, mean": -2.86, "gene median z, three same-vendor siRNAs": -2.86, "Call": "active"}
{"gene": "Ssh3", "siRNA no.": 3, "TNF reporter z-score, mean": -5.05, "gene median z, three same-vendor siRNAs": -2.86, "Call": "active"}
{"gene": "Ssh3", "siRNA no.": 4, "TNF reporter z-score, mean": -0.127, "gene median z, three same-vendor siRNAs": -1.78, "Call": "inactive"}
{"gene": "Ssh3", "siRNA no.": 5, "TNF reporter z-score, mean": -1.79, "gene median z, three same-vendor siRNAs": -1.78, "Call": "inactive"}
{"gene": "Ssh3", "siRNA no.": 6, "TNF reporter z-score, mean": -2.29, "gene median z, three same-vendor siRNAs": -1.78, "Call": "active"}

A portion taken from the entries so far:
{"gene": "Rpl37a", "siRNA no.": 5, "TNF reporter z-score, mean": -2.04, "gene median z, three same-vendor siRNAs": -2.68, "Call": "active"}
{"gene": "Rpl37a", "siRNA no.": 6, "TNF reporter z-score, mean": -3.14, "gene median z, three same-vendor siRNAs": -2.68, "Call": "active"}
{"gene": "Ier5", "siRNA no.": 1, "TNF reporter z-score, mean": 0.969, "gene median z, three same-vendor siRNAs": -1.95, "Call": "inactive"}
{"gene": "Ier5", "siRNA no.": 2, "TNF reporter z-score, mean": -1.99, "gene median z, three same-vendor siRNAs": -1.95, "Call": "inactive"}
